Data reported in PMC6967779.
Results are given in words; binding and its absence hold for the method and conditions named. In cells and extracts the contact can be indirect. Some binding calls cover weakened binding; strength is not graded here. Sequences can lack the tags named with a protein.

Amino acid sequences for entries named in this document (tags omitted). Residues count along the entry.
UniProt P25705, residues 44-553: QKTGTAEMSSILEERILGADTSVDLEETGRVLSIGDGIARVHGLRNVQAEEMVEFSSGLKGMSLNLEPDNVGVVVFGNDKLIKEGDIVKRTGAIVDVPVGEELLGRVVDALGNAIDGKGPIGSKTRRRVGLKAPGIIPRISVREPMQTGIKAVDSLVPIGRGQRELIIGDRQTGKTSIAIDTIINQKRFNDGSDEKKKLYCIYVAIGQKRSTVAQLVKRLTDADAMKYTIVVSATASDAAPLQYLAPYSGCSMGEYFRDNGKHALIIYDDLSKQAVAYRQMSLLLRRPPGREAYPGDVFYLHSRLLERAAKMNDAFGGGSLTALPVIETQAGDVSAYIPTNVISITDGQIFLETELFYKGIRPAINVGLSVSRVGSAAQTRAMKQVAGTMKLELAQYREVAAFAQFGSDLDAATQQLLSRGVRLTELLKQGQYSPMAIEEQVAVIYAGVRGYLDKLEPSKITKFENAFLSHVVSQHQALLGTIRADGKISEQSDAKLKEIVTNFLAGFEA

Experiments:
[1] = target: T1, WT rGRA8 (recombinant His-tagged Toxoplasma gondii GRA8, 1-269) (Toxoplasma gondii); test: condition: only in HCT116 cells transduced with lentivirus-shRNA-PKCα; co-IP; as a1, but HCT116 cells transduced with lentivirus-shRNA-PKCalpha (MOI = 100) for 2 days before rGRA8; only the target purified
T1 sequence: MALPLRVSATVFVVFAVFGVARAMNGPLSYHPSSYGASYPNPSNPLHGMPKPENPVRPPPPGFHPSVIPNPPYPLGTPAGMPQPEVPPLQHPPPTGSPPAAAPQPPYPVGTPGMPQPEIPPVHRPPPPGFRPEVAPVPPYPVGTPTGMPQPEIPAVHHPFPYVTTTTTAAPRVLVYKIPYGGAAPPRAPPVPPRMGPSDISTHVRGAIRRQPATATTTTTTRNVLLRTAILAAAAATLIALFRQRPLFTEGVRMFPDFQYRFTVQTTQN

[2] = target: T1, WT rGRA8 (recombinant His-tagged Toxoplasma gondii GRA8, 1-269) (Toxoplasma gondii); test: condition: only in HCT116 cells transduced with lentivirus-shRNA-SIRT3; co-IP; as a1, but HCT116 cells transduced with lentivirus-shRNA-SIRT3 (MOI = 100) for 2 days before rGRA8; only the target purified
[3] = target: T1, WT rGRA8 (recombinant His-tagged Toxoplasma gondii GRA8, 1-269) (Toxoplasma gondii); test: co-IP; HCT116 cells (lentivirus-shRNA-NS) incubated with WT rGRA8 for the indicated times; lysed in NP-40 buffer; IP with anti-His, IB with anti-ATP5A1, anti-ATP5C1, anti-SIRT3; only the target purified
[4] = target: T2, GST-GRA8 WT (1-269) (Toxoplasma gondii); test: pull-down; 293T cells transfected with GST-GRA8 together with V5-ATP5A1 or Flag-SIRT3; NP-40 lysate; glutathione Sepharose beads, 4 h at 4°C; IB with anti-V5 or anti-Flag
T2 sequence: T1 sequence

Substance | binding [1] | binding [2] | binding [3] | binding [4]
ATP synthase F1 subunit alpha (ATP5A1), endogenous (from UniProt P25705 44-553) | no binding | no binding | binds | 
V5-ATP5A1 (from UniProt P25705 44-553) |  |  |  | binds
